Measurements published in patent publication US9029076B2, “Tissue preservation and fixation method” (George Mason Research Foundation, Inc., priority 2006, dated 2015).

Tested on: frozen tissue section
Experiment: Cutting of frozen tissue sections after fixation in candidate solutions
Settings: for ability to allow the cutting of frozen sections or microdissection, and to achieve phosphoprotein stability: FIG. 5

Row | Compound | ability to allow the cutting of frozen sections or microdissection, and to achieve phosphoprotein stability | also measured
1 | Polyethylene glycol (PEG 400) |  | Successful cutting frozen tissue section (tissue fixed in the chemical with stated diluent and additives): No
2 | CO [85% methanol, methanol] |  | suitability for freezing (third study, high percentage of fixative acting as anti-freeze): unsuitable for freezing
3 | CO [10% methanol in water, methanol] | freezing is not impeded, frozen sections can be cut, and histology is acceptable for LCM | 
4 | CCO [ethanol] | do not function well | 
5 | CC(C)=O [Acetone] | do not function well | 
